Results from patent US20090275727A1 (MIMETICA PTY LIMITED, priority 1998, published 2009).

Test: general procedure: Fmoc solid-phase peptide synthesis; Rink amide MBHA; HBTU/DIEA; HATU/DIEA for the pentapeptide helix mimetic building block
Settings: whole synthesis

| Substance | crude mass (scale 0.18 mmol) | isolated mass (scale 0.18 mmol) | crude mass (scale 0.25 mmol) | isolated mass (scale 0.25 mmol) |
| --- | --- | --- | --- | --- |
| GWTLNSAGYLLGPHAV-NH2 | 34 mg | 2.3 mg | – | – |
| FLPLIGRVLSGIL-NH2 | – | – | 65 mg | 6.4 mg |
| FLPLIGRGLSGLL-NH2 | – | – | 240 mg | 4.4 mg |
